Primary screen of a compound library

Data taken from ChEMBL document CHEMBL3988442, “University of Dundee, Small-Polar-MMV Screening Library” (2021).

Mtb growth Cornell: 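Whole-cell assay for inhibitors of Mycobacterium tuberculosis growth, labelled Cornell in the record; the read-out is not stated. The concentration is filed as 10 mM, unlikely as a test dose, so the dose is not known. The record gives no direction; compounds strong in two other growth screens of this library score well above the rest, so higher reads as stronger inhibition. Size under these conditions: about 53,000 compounds, about 900 of them at 50% or above in at least one test.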
Mtb heat-shock: 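Assay on Mycobacterium tuberculosis, filed only as a heat shock assay from Cornell; the read-out is not stated. The concentration is filed as 10 mM, unlikely as a test dose, so the dose is not known. The record gives no direction; compounds that gave an IC50 in retests scored well above the rest, so higher reads as stronger inhibition. About 69,000 compounds were tested under these conditions; 1.4% (about 930) showed 50% or more at least once.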

The filed quantity is “Percent Effect” (%). The record does not define 0% and 100%; most values in the screen are far below 50% and negative numbers occur (in some assays of this library far below -100). Compounds were drawn at random from those tested, without regard to their results.

{"structure": "O=C(O)C(F)(F)F.[H][C@@]12CCN(c3ncccn3)C[C@]1([H])[C@H](C(=O)NCc1ccco1)CCO2", "Mtb growth Cornell": -22.51, "Mtb heat-shock": -33.82}
{"structure": "CN(Cc1cccnc1)CC1CN(C(=O)C2CC2)Cc2nccn2C1.O=C(O)C(F)(F)F.O=C(O)C(F)(F)F", "stereo": "centres unmarked", "Mtb growth Cornell": 20.23, "Mtb heat-shock": -9.906}
{"structure": "Cc1cncc(C(=O)N2CCC3(CC2)NC(=O)CC3c2ccccc2)c1.O=C(O)C(F)(F)F", "stereo": "centres unmarked", "Mtb growth Cornell": -31.83, "Mtb heat-shock": -19.61}
{"structure": "CCCc1nnc(N2CCC(N3CCN(CCO)CC3)CC2)o1", "Mtb heat-shock": -18.21}
{"structure": "O=C(O)C(F)(F)F.[H][C@]12CCN(C(=O)COC)[C@@]1([H])CC[C@@H](COCc1ccncc1)O2", "Mtb growth Cornell": 2.237, "Mtb heat-shock": -0.7888}
{"structure": "CNC(=O)c1ccc(OC)c(NCc2noc(-c3cccs3)n2)c1", "Mtb growth Cornell": -1, "Mtb heat-shock": -8.005}
{"structure": "CC(C)N1CCC(c2cc(C(F)(F)F)n3ccnc3n2)CC1", "Mtb heat-shock": -28.41}
{"structure": "CN(C)C(=O)N1CCN(c2cc(N3CCCC3CO)ncn2)CC1", "stereo": "centres unmarked", "Mtb growth Cornell": 4.92, "Mtb heat-shock": -11.54}
{"structure": "CC(=O)N(Cc1noc(C2CC2)n1)C1CCN(Cc2nccn2C)C1", "stereo": "centres unmarked", "Mtb growth Cornell": 14.55, "Mtb heat-shock": 0.1869}
{"structure": "Cc1ccccc1CC(=O)N[C@@H]1CCC[C@@H](N2CCNC(=O)C2)[C@@H]1O", "Mtb growth Cornell": 3.763, "Mtb heat-shock": 12.08}
{"structure": "[H][C@@]12COC[C@]1(c1nnc(C)o1)CN(C(=O)c1cc(C)no1)C2", "Mtb growth Cornell": 33.1, "Mtb heat-shock": -10.3}
{"structure": "COC1COC2(CCN(C(=O)c3ccc4ccccc4c3)CC2)C1", "stereo": "centres unmarked", "Mtb growth Cornell": 20.77, "Mtb heat-shock": -8.84}
{"structure": "Cc1cc(Oc2ccccc2F)nc(C2CCCCN2)n1.Cl.Cl", "stereo": "centres unmarked", "Mtb growth Cornell": -6.644, "Mtb heat-shock": -28.26}
{"structure": "CCn1cc2c(n1)C(COCC1CC1)CN(C(=O)c1ccsc1)C2", "stereo": "centres unmarked", "Mtb growth Cornell": 33.58, "Mtb heat-shock": -16.25}
{"structure": "CCc1nnc2n1CCN(C(=O)c1ccc3nc(C)c(C)nc3c1)C2", "Mtb growth Cornell": 14.13, "Mtb heat-shock": 4.731}
{"structure": "Cc1nc(C2CCCN(C(=O)c3cc(-c4ccccc4)[nH]n3)C2)no1", "stereo": "centres unmarked", "Mtb heat-shock": 9.676}
{"structure": "CC(=O)NC(C)(C)c1noc(C2(C#N)CCCCC2)n1", "Mtb growth Cornell": 10.07, "Mtb heat-shock": 10.09}
{"structure": "CSCC(=O)N(C)Cc1cnn(-c2ccc(F)cc2)c1", "Mtb growth Cornell": -31.9, "Mtb heat-shock": -5.402}
{"structure": "Cn1cc(C2CCCN2C(=O)CCn2c(=O)oc3ccccc32)cn1", "stereo": "centres unmarked", "Mtb growth Cornell": -27.18, "Mtb heat-shock": -8.626}
{"structure": "COc1ccccc1N1CCN(C(=O)Cn2nc(C)c(C)c2C)C(C)C1", "stereo": "centres unmarked", "Mtb heat-shock": 9.052}
{"structure": "O=C(O)C(F)(F)F.O=C(O)C(F)(F)F.O=C(O)C(F)(F)F.[H][C@@]12CCN(Cc3ccccn3)[C@@]1([H])CC(=O)N2CCN1CCOCC1", "Mtb growth Cornell": 4.037, "Mtb heat-shock": -15.17}
{"structure": "CC(C)N1CCCC2(CCN(c3nccc(C(F)(F)F)n3)C2)C1=O", "stereo": "centres unmarked", "Mtb growth Cornell": 34.88, "Mtb heat-shock": -6.977}
{"structure": "CCCn1nc(-c2nc(COc3ccccc3)no2)ccc1=O", "Mtb growth Cornell": 11.46, "Mtb heat-shock": 10.43}
{"structure": "O=C(CN1C(=O)CCC1=O)N1CCOC2(CCOCC2)C1", "Mtb growth Cornell": -19.1, "Mtb heat-shock": -15.45}
{"structure": "Cc1n[nH]c(C2CN(Cc3nnc(C4CCC4)o3)CCO2)n1", "stereo": "centres unmarked", "Mtb heat-shock": -1.342}
{"structure": "CN(C)CCN1C(=O)CCCC12CCCN(Cc1ccc[nH]1)C2", "stereo": "centres unmarked", "Mtb growth Cornell": -39.42, "Mtb heat-shock": -23.69}
{"structure": "Cc1cc(C(=O)NC2CCN(c3ncccc3C#N)CC2)no1", "Mtb heat-shock": -5.581}
{"structure": "Cl.O=C(Nc1cccc(CNCc2cccs2)c1)C1CC1", "Mtb heat-shock": 39.67}
{"structure": "CNC(=O)c1cnc2n1CCN(Cc1cccnc1OC)C2", "Mtb growth Cornell": -16.05, "Mtb heat-shock": 2.201}

Some entries from above, unchanged:

{"structure": "Cc1cncc(C(=O)N2CCC3(CC2)NC(=O)CC3c2ccccc2)c1.O=C(O)C(F)(F)F", "stereo": "centres unmarked", "Mtb growth Cornell": -31.83, "Mtb heat-shock": -19.61}
{"structure": "CC(C)N1CCCC2(CCN(c3nccc(C(F)(F)F)n3)C2)C1=O", "stereo": "centres unmarked", "Mtb growth Cornell": 34.88, "Mtb heat-shock": -6.977}
{"structure": "CNC(=O)c1cnc2n1CCN(Cc1cccnc1OC)C2", "Mtb growth Cornell": -16.05, "Mtb heat-shock": 2.201}